Results reported in the supplement of paper PMC7830784.
Counter-ions that a name gives are not always drawn. This is one part of the list. Repeats in this data set agree poorly, so a single value says little.

System: Brugia pahangi adult female
Assay: motility inhibition on day 3 relative to DMSO vehicle; higher = more active
Settings: 10 µM; 3 days

SMILES	motility inhibition on day 3 [%]
Cn1nnc2c(C(N)=O)ncn2c1=O [temozolomide]	3.92
CC(C)(C)CC(C)(C)c1ccc(OCCOCC[N+](C)(C)Cc2ccccc2)cc1 [benzethonium chloride]	90.5
CCCCOc1ccc(C(=O)CCN2CCCCC2)cc1 [dyclonine hydrochloride]	7.54
Nc1nc(N)c2nc(-c3ccccc3)c(N)nc2n1 [Triamterene]	17.1
C=C1CC[C@H](O)C/C1=C/C=C1\CCC[C@]2(C)[C@@H]([C@H](C)/C=C/[C@H](C)C(C)C)CC[C@@H]12 [ergocalciferol]	15.3
C=CC[N+]1([C@H]2C[C@H]3[C@@H]4CC[C@H]5C[C@H](O)[C@@H](N6CCOCC6)C[C@]5(C)[C@H]4CC[C@]3(C)[C@H]2OC(C)=O)CCCC1 [Rocuronium bromide]	< 0
CC(C)(C)NC(=O)[C@H]1CC[C@H]2[C@@H]3CC[C@H]4NC(=O)C=C[C@]4(C)[C@H]3CC[C@]12C [finasteride]	< 0
C[N+](C)(C)C[C@H](O)CC(=O)[O-] [levocarnitine]	< 0
CC(CN(C)C)CN1c2ccccc2CCc2ccccc21 (centres undefined) [trimipramine maleate]	19
CC(C)NCC(O)COc1cccc2[nH]ccc12 (centres undefined) [Pindolol]	28.5
OC(CCN1CCCC1)(c1ccccc1)C1CCCCC1 (centres undefined) [procyclidine hydrochloride]	1.29
O=C(Nc1ccc([N+](=O)[O-])cc1Cl)c1cc(Cl)ccc1O [niclosamide]	97.2
CCOc1ccc(Cc2nccc3cc(OCC)c(OCC)cc23)cc1OCC [ethaverine hydrochloride]	12.8
Nc1ccc(S(=O)(=O)O)cc1.Nc1ccc(S(=O)(=O)O)cc1.[Zn] [sulfanilate zinc]	24.5
C#C[C@]1(O)CC[C@H]2[C@@H]3CCC4=Cc5oncc5C[C@]4(C)[C@H]3CC[C@@]21C [danazol]	16.3
CN1C(C(=O)Nc2ccccn2)=C(O)c2sc(Cl)cc2S1(=O)=O [lornoxicam]	6.25
CC12CC3CC(C)(C1)CC(N)(C3)C2 [Memantine hydrochloride]	12.9
CCC[C@@H]1C[C@@H](C(=O)N[C@@H]([C@H]2O[C@H](SC)[C@H](O)[C@@H](O)[C@H]2O)[C@@H](C)O)N(C)C1 [lincomycin hydrochloride]	64.8
CO[C@H]1C[C@@H]2CC[C@@H](C)[C@@](O)(O2)C(=O)C(=O)N2CCCC[C@H]2C(=O)O[C@H]([C@H](C)C[C@@H]2CC[C@@H](OC(=O)C(C)(CO)CO)[C@H](OC)C2)CC(=O)[C@H](C)/C=C(\C)[C@@H](O)[C@@H](OC)C(=O)[C@H](C)C[C@H](C)/C=C/C=C/C=C/1C [Temsirolimus]	15.5
CN1CCCN=C1/C=C/c1cccs1 [pyrantel pamoate]	39.9
CCCCC(CC)COc1ccc(-c2nc(-c3ccc(OC)cc3)nc(-c3ccc(OCC(CC)CCCC)cc3O)n2)c(O)c1 (centres undefined) [bemotrizinol]	9.51
CC/C=C\C/C=C\C/C=C\C/C=C\C/C=C\C/C=C\CCC(=O)O [doconexent]	< 0

SMILES	motility inhibition on day 3 [%]
O=c1cc[nH]c(=O)[nH]1 [uracil]	7.61
CCC(=O)OCC(=O)[C@@]1(OC(=O)CC)[C@@H](C)C[C@H]2[C@@H]3CCC4=CC(=O)C=C[C@]4(C)[C@@]3(F)[C@@H](O)C[C@@]21C [betamethasone 17,21-dipropionate]	13.8
CC1(C)O[C@@H]2C[C@H]3[C@@H]4C[C@H](F)C5=CC(=O)CC[C@]5(C)[C@H]4[C@@H](O)C[C@]3(C)[C@]2(C(=O)CO)O1 [flurandrenolide]	24.7
NNC(=O)c1ccncc1 [isoniazid]	46.5
CCN1CCCC1CNC(=O)c1cc(S(N)(=O)=O)ccc1OC (centres undefined) [sulpiride]	1.96
COc1ccc(-c2ccc3cc(C(=O)O)ccc3c2)cc1C12CC3CC(CC(C3)C1)C2 [adapalene]	23.2
O=c1[nH]c(=O)n([C@H]2C[C@H](O)[C@@H](CO)O2)cc1I [idoxuridine]	< 0
N[C@@H](COP(=O)(O)O)C(=O)O [O-Phospho-L-serine]	< 0
Cc1cccc(N(C)C(=S)Oc2ccc3ccccc3c2)c1 [tolnaftate]	< 0
O=C(O)c1cccnc1 [niacin]	14.7
CCCCc1oc2ccccc2c1C(=O)c1cc(I)c(OCCN(CC)CC)c(I)c1 [Amiodarone hydrochloride]	2.32
CC(C)C[C@H](NC(=O)[C@@H](Cc1cccc2ccccc12)NC(=O)[C@H](Cc1ccc(O)cc1)NC(=O)[C@H](CO)NC(=O)[C@H](Cc1c[nH]c2ccccc12)NC(=O)[C@H](Cc1cnc[nH]1)NC(=O)[C@@H]1CCC(=O)N1)C(=O)N[C@@H](CCCNC(=N)N)C(=O)N1CCC[C@H]1C(=O)NCC(N)=O [Nafarelin]	9.34
CN(C)CCc1c[nH]c2ccc(CS(=O)(=O)N3CCCC3)cc12 [almotriptan]	< 0
CN1CCN2c3ccccc3Cc3ccccc3C2C1 (centres undefined) [Mianserin hydrochloride]	24.9
N[C@@H](Cc1ccc(O)c(O)c1)C(=O)O [levodopa]	6.31
CCCCc1ncc(/C=C(\Cc2cccs2)C(=O)O)n1Cc1ccc(C(=O)O)cc1 [Eprosartan mesylate]	15.5
O=C(O)CCC(=O)c1ccc(-c2ccccc2)cc1 [fenbufen]	1.92
O=C1c2c(O)ccc(O)c2C(=O)c2c(NCCNCCO)ccc(NCCNCCO)c21 [mitoxanthrone hydrochloride]	31.5
CCOC(=O)C1=C(C)NC(C)=C(C(=O)OC)C1c1cccc(Cl)c1Cl (centres undefined) [felodipine]	7.8
CO[C@H]1C[C@H](O[C@@H]2/C(C)=C/C[C@@H]3C[C@@H](C[C@]4(CC[C@H](C)[C@@H](C5CCCCC5)O4)O3)OC(=O)[C@@H]3C=C(C)/C(=N/O)[C@H]4OC/C(=C\C=C\[C@@H]2C)[C@]43O)O[C@@H](C)[C@@H]1O [selamectin]	28.2
C[C@H](CCC(=O)O)[C@H]1CC[C@H]2[C@@H]3C(=O)C[C@@H]4CC(=O)CC[C@]4(C)[C@H]3CC(=O)[C@]12C [dehydrocholic acid]	0.86
C[C@H](CCC(=O)O)[C@H]1CC[C@H]2[C@@H]3C(=O)C[C@@H]4CC(=O)CC[C@]4(C)[C@H]3CC(=O)[C@]12C [sodium dehydrocholate]	2.03

Rewritten with each value named: part of the list above.
O=c1[nH]c(=O)n([C@H]2C[C@H](O)[C@@H](CO)O2)cc1I [idoxuridine]
  motility inhibition on day 3 [%]: < 0
CCCCc1ncc(/C=C(\Cc2cccs2)C(=O)O)n1Cc1ccc(C(=O)O)cc1 [Eprosartan mesylate]
  motility inhibition on day 3 [%]: 15.5
O=C(O)CCC(=O)c1ccc(-c2ccccc2)cc1 [fenbufen]
  motility inhibition on day 3 [%]: 1.92
